This passage reports binding results from PMC8894380.

By UniProt entry, the sequences of proteins in these tests, tags left out.
UniProt Q13123: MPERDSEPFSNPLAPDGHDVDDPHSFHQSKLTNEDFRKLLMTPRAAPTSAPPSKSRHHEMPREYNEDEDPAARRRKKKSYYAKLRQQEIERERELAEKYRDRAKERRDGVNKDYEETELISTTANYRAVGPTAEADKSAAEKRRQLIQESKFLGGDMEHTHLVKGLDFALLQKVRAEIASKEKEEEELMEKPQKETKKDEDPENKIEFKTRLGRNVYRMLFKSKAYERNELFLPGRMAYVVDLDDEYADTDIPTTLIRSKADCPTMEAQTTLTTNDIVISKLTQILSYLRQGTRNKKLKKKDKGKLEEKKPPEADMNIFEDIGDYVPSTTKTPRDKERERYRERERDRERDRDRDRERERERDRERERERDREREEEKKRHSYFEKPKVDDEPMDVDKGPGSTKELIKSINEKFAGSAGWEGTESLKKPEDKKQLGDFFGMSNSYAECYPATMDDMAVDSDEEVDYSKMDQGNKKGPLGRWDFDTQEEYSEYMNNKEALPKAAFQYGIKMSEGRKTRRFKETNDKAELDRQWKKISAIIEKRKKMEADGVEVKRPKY
UniProt Q9BUQ8: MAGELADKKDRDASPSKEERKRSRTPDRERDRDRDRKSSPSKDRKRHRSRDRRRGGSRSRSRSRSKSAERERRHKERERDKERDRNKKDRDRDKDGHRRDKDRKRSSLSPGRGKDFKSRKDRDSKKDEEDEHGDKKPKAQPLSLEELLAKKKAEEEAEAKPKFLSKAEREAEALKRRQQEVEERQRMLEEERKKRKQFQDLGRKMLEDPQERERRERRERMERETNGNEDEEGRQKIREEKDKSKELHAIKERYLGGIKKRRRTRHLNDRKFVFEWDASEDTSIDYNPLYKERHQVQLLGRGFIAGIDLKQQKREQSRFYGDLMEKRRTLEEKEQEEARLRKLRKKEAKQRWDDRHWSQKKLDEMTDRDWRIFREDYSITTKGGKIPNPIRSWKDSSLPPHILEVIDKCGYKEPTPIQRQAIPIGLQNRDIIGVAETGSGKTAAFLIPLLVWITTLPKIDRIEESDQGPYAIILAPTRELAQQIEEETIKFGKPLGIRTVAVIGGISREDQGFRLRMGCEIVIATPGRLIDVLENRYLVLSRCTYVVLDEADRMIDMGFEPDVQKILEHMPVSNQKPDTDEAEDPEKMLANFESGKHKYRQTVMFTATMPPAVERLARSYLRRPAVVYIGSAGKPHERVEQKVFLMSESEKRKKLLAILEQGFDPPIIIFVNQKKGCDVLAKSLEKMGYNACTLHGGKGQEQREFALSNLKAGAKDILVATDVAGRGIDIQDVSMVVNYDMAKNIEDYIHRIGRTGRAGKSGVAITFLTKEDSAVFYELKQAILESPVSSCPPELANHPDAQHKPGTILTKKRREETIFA
UniProt P61326: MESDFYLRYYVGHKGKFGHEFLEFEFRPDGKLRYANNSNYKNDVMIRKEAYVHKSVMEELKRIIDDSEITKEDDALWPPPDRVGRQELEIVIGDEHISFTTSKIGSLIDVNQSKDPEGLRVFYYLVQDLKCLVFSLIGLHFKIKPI

Numbering of substitutions follows the chain as printed. These are yes or no findings as the source states them, for the method shown. Binding seen in cells or lysates may run through a third protein. A yes stands for co-enrichment or nearness to the bait. Other partners may have been found. Where a sequence is shown, tags or fusion partners need not be part of it.

The target of assay [1] is T1, C9ORF78 with C-terminal 3xFlag-His6-Biotin-His6 tag (human) (UniProt Q9NZ63).
T1 sequence: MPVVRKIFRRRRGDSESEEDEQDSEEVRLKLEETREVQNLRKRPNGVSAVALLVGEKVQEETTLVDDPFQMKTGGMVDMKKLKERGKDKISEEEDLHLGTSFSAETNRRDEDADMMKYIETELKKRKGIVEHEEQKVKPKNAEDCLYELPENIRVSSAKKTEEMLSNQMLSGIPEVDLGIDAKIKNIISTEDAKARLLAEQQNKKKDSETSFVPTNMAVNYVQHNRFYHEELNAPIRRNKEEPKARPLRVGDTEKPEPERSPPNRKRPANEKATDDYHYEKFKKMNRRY
The assay can be described thus: affinity purification with mass spectrometry; Flag-IP (Flag M2 affinity gel) from 500 ug nuclear extract of Flp-In T-REx 293 stable cells, IP buffer 150 mM NaCl with benzonase, eluted with 3xFlag peptide; label-free LC-MS against control IP of unmodified cells.

The target of assay [2] is T2, C9ORF78^R41A with C-terminal 3xFlag-His6-Biotin-His6 tag (human) (UniProt Q9NZ63).
T2 sequence: T1 sequence with R41A
Described as above.

In the case of RED (from UniProt Q13123 1-557), the binding entry in assay [1] is “binds”.

Turning to “PRPF28/DDX23 (from UniProt Q9BUQ8 1-820) (enzyme)”, the binding entry in assay [2] is recorded as “binds”.

For the substance MAGOH (from UniProt P61326 1-146), in assay [2], the binding entry is recorded as “binds”.
